We go through 110 sequences from the supplement of paper PMC3334620.

Over roughly 33,000 sequences, “E-score (-0.5 to 0.5)” has its median near -0.015; the highest 2% begin near 0.3. Some of the results follow.

For the assay, the target named is T1, Abf1 (UniProt P14164).
T1 sequence: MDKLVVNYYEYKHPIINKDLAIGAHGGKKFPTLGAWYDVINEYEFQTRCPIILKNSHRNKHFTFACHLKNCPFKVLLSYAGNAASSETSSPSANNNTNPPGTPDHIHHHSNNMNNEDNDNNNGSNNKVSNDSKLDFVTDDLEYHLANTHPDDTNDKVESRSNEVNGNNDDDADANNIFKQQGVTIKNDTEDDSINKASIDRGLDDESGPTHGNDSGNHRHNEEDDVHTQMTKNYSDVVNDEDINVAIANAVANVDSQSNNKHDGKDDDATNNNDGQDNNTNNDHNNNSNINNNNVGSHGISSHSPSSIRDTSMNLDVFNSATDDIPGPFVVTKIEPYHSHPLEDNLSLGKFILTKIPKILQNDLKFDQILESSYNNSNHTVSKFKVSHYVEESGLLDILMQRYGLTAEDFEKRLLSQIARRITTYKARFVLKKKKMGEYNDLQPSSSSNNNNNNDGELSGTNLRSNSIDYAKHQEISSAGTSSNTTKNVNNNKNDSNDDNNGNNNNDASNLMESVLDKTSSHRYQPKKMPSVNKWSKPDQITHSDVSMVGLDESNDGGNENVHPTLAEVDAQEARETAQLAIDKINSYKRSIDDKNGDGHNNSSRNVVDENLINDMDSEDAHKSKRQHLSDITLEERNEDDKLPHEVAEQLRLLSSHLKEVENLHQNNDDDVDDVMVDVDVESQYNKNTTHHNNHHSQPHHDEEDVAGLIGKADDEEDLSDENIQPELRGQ
In words: PBM E-score (8-mer binding enrichment) (E-score (-0.5 to 0.5)); higher = stronger / more preferred TF binding. Conditions: protein concentration: 200 nM; construct: GST-full length. The method in brief:
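Universal all-10-mer Agilent arrays, fresh or stripped once, were converted to double-stranded form by primer extension. GST-tagged yeast transcription factors from PURExpress in vitro transcription/translation, full-length or DNA-binding domain only, were applied at about 100-200 nM and detected with fluorescent anti-GST. After masliner normalisation, the Universal PBM Analysis Suite scored each ungapped eight-base word together with its reverse complement by E-score.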
Turning to AGCCGCGA, the “PBM E-score” value was -0.183. For ATACGAGG the value was 0.179; for ATGAGCGC, 0.0585. AAAGATTA: the “PBM E-score” value worked out at 0.124. Turning to CGCTCTTC, the “PBM E-score” value is -0.178.

In the case of AAACTAGT, the “PBM E-score” value was -0.0126.

For the sequence GATTCCGA, the “PBM E-score” value was -0.0139. On to GGACAGAA, for which the “PBM E-score” value is -0.133. For CATGGCTA the value was 0.0942. The figure for GCTTATTA is 0.191. Regarding ACGTTATG, the “PBM E-score” value is 0.0618. The figure for CCTAACAG is -0.104; for TCGCCTAA it is -0.0538; for GACGGGCA it is 0.0489. The figure for CGCAGTAC is -0.177; for AGCTCATC it is -0.224. For AACTCGAA the value was -0.0259. For GATGCAAC, the “PBM E-score” value is -0.0139. For CTTGCTGC the value was -0.0947. The figure for CGTTCAAC is 0.276; for AGGAAAGG it is -0.122.

As to ACACGAAG, the “PBM E-score” value turned out to be 0.269. Regarding TTAAGGAA, the “PBM E-score” value was determined as 0.0723. For the sequence ACCGTGAG, the “PBM E-score” value worked out at 0.125. Consider CTAGATCA, for which the “PBM E-score” value was 0.161. For ATGTAAGG the value was -0.0364; for CCAGAGCC, -0.164. The figure for GACTAATA is 0.0833. The figure for CGCTTCTC is -0.154.

As for ACGGCCGA, the “PBM E-score” value came out at 0.151. The figure for CAGCGTCG is -0.0875; for GGAACTGA it is -0.177.

Turning to ACGGATAG, the “PBM E-score” value is 0.101. For AGTTAGCC the value was 0.056; for CAAACCCG, 0.204.

On to GATCTATA, for which the “PBM E-score” value was 0.163. The figure for CTGGCCAC is -0.131; for ACCTGTCC it is -0.19. The figure for GATTTGTA is 0.163; for CGCTTTAG it is -0.0454; for GTTGTTGA it is -0.0511. For AGTGAACA the value was -0.0718; for TGGTCGAA, -0.0878. For TAGAAATA, the “PBM E-score” value amounted to 0.0745. With AGAATGCC, the “PBM E-score” value is -0.0624. AATTTTGC: the “PBM E-score” value was -0.118. Take AAGCCCTG: the “PBM E-score” value was -0.0659. The figure for AATATGCG is 0.198; for GAAATGAC it is 0.312; for CCACTATA it is 0.0935.

With GTTTCCGA, the “PBM E-score” value was -0.0193. The figure for GCCGGAGC is -0.139; for CCCATTCG it is -0.0848; for GCAGGACC it is -0.223.

Regarding CCATATGC, the “PBM E-score” value came to 0.0265. For the sequence CAGCATCG, the “PBM E-score” value was -0.122.

On to AGGGATTC, for which the “PBM E-score” value is -0.00272.

With CGCTGGCA, the “PBM E-score” value turned out to be 0.21. For CCCCATAA the value was -0.132; for CCTATTAG, -0.0388. As for TCAGGGAA, the “PBM E-score” value is -0.149.

In the case of TCTTGCCA, the “PBM E-score” value was -0.11.

As to AAATGCAG, the “PBM E-score” value was determined as 0.0843. Consider GCGCCATA, for which the “PBM E-score” value is -0.099.

Turning to AGTTTGCA, the “PBM E-score” value is -0.154. For CCGATCCC, the “PBM E-score” value was -0.198. Consider CACAGATC, for which the “PBM E-score” value was -0.0494.

Turning to AATGGGTC, the “PBM E-score” value is -0.274.

Take CGTCGTAA: the “PBM E-score” value was determined as 0.392.

With AAATTCTG, the “PBM E-score” value is -0.00748.

In the case of AAGATTGG, the “PBM E-score” value was -0.00117. In the case of GGCACGAC, the “PBM E-score” value worked out at 0.289. The figure for AGAGACTA is -0.115; for CACAGCTC it is -0.127; for ACCTAGTG it is 0.111. The figure for CAACTTCC is 0.102; for GTCAGTTA it is -0.162.

In the case of CCGGCAAA, the “PBM E-score” value was -0.17. The figure for GTAATAAA is 0.313.

For AGCACAAT, the “PBM E-score” value was -0.0604. The figure for ACACCATC is -0.0484. The figure for AAAGACAA is 0.102. As for ACCTGTTC, the “PBM E-score” value came out at 0.0955. The figure for CATGTGGG is -0.135; for CACAGTGA it is 0.109. The figure for AACGGTTC is 0.0372; for ATCTACTG it is 0.0439; for GCACGTTA it is -5e-05. For ACCGACGT the value was -0.0248; for ACCATAAT, 0.0844; for CATTCACA, -0.00351.

With ACTTGCTC, the “PBM E-score” value is -0.0791. For CCCAGGCG the value was -0.179. For CTCTTCTC, the “PBM E-score” value is -0.179.

On to CATGTTTA, for which the “PBM E-score” value worked out at 0.0422.

Consider AGATGTGA, for which the “PBM E-score” value amounted to 0.00968.

As to AAGCAATT, the “PBM E-score” value was 0.191. The figure for TATGAAGA is 0.0705; for GCATTTTA it is 0.0568. For CGTGTGAG, the “PBM E-score” value worked out at 0.219. For AAAACTCA, the “PBM E-score” value is -0.0674.

Turning to ACGGCACT, the “PBM E-score” value stood at 0.102.

GAATGATA: the “PBM E-score” value turned out to be 0.397.

As to CATCGACC, the “PBM E-score” value is -0.0355.

Consider ACAGCTAT, for which the “PBM E-score” value was -0.111. For CCGTCCTA, the “PBM E-score” value was 0.0811. The figure for GCTGTTAA is 0.0115; for CAGTGACG it is 0.239; for ACGCGTTG it is 0.0895. Take AGGAATCC: the “PBM E-score” value was -0.106.
